# The supplement of paper PMC8728848
# This is one part of the list.
# Key:
# Test in all cases: glycan array binding signal (z-score within array); higher = stronger binding
# Details in all cases: glycan notation: IUPAC condensed, linker removed
# [1] = biological target: Gal3S(b1-3)[Fuc(a1-4)]GlcNAc
# In short: (§1)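 Glycan array binding is given as a within-array Z-score, which can be read as non-binding when negative. The arrays, 3228 of them, came from the Consortium for Functional Glycomics database and were retained only where the protein sequence was available. Z-scores were averaged across arrays of the same protein sequence at different concentrations or buffers and across linkers.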
# Gal3S(b1-4)Glc = biological target: Gal3S(b1-4)Glc
# In short: as §1
# Gal3S(b1-4)Glc6S = biological target: Gal3S(b1-4)Glc6S
# In short: as §1
# Gal3S(b1-4)GlcNAc = biological target: Gal3S(b1-4)GlcNAc
# In short: as §1
# [2] = biological target: Gal3S(b1-4)[Fuc(a1-3)]Glc6S
# In short: as §1
# [3] = biological target: Gal3S(b1-4)[Fuc(a1-3)]GlcNAc
# In short: as §1
# [4] = biological target: Gal3S(b1-4)[Fuc(a1-3)]GlcNAc6S
# In short: as §1
# Gal3S4S(b1-4)GlcNAc = biological target: Gal3S4S(b1-4)GlcNAc
# In short: as §1
# Gal3S6S(b1-4)GlcNAc = biological target: Gal3S6S(b1-4)GlcNAc
# In short: as §1
# Gal3S6S(b1-4)GlcNAc6S = biological target: Gal3S6S(b1-4)GlcNAc6S
# In short: as §1
# Gal4S(b1-4)GlcNAc = biological target: Gal4S(b1-4)GlcNAc
# In short: as §1
# Gal4S6S(b1-4)GlcNAc = biological target: Gal4S6S(b1-4)GlcNAc
# In short: as §1
# Gal6P(b1-4)GlcNAc = biological target: Gal6P(b1-4)GlcNAc
# In short: as §1
# Gal6S(b1-3)GlcNAc = biological target: Gal6S(b1-3)GlcNAc
# In short: as §1
# Gal6S(b1-3)GlcNAc6S = biological target: Gal6S(b1-3)GlcNAc6S
# In short: as §1
# Gal6S(b1-4)Glc = biological target: Gal6S(b1-4)Glc
# In short: as §1
# Gal6S(b1-4)Glc6S = biological target: Gal6S(b1-4)Glc6S
# In short: as §1
# Gal6S(b1-4)GlcNAc = biological target: Gal6S(b1-4)GlcNAc
# In short: as §1
# Gal6S(b1-4)GlcNAc6S = biological target: Gal6S(b1-4)GlcNAc6S
# In short: as §1
# GalNAc(a1-3)Gal = biological target: GalNAc(a1-3)Gal
# In short: as §1
# GalNAc(a1-3)GalNAc = biological target: GalNAc(a1-3)GalNAc
# In short: as §1
# [5] = biological target: GalNAc(a1-3)GalNAc(b1-3)Gal(a1-4)Gal(b1-4)Glc
# In short: as §1
# [6] = biological target: GalNAc(a1-3)GalNAc(b1-3)Gal(a1-4)Gal(b1-4)GlcNAc
# In short: as §1
# GalNAc(b1-3)Gal = biological target: GalNAc(b1-3)Gal
# In short: as §1
# [7] = biological target: GalNAc(b1-3)Gal(a1-4)Gal(b1-4)GlcNAc
# In short: as §1
# [8] = biological target: GalNAc(b1-3)Gal(a1-4)Gal(b1-4)GlcNAc(b1-3)Gal(b1-4)Glc
# In short: as §1
# [9] = biological target: GalNAc(b1-3)Gal(a1-6)Gal(b1-4)Glc
# In short: as §1
# GalNAc(b1-3)GalNAc = biological target: GalNAc(b1-3)GalNAc
# In short: as §1
# GalNAc(b1-3)GlcNAc = biological target: GalNAc(b1-3)GlcNAc
# In short: as §1
# GalNAc(b1-4)Gal(b1-4)Glc = biological target: GalNAc(b1-4)Gal(b1-4)Glc
# In short: as §1
# GalNAc(b1-4)GlcNAc = biological target: GalNAc(b1-4)GlcNAc
# In short: as §1
# [10] = biological target: GalNAc(b1-4)GlcNAc(b1-2)Man
# In short: as §1
# [11] = biological target: GalNAc(b1-4)GlcNAc(b1-2)Man(a1-3)[GalNAc(b1-4)GlcNAc(b1-2)Man(a1-6)]Man(b1-4)GlcNAc(b1-4)GlcNAc
# In short: as §1
# [12] = biological target: GalNAc(b1-4)GlcNAc(b1-3)GalNAc(b1-4)GlcNAc
# In short: as §1
# GalNAc(b1-4)GlcNAc6S = biological target: GalNAc(b1-4)GlcNAc6S
# In short: as §1
# GalNAc(b1-6)GalNAc = biological target: GalNAc(b1-6)GalNAc
# In short: as §1
# GalNAc3S(b1-4)GlcNAc = biological target: GalNAc3S(b1-4)GlcNAc
# In short: as §1
binder,measurement,setting,value
"SUN4 (Saccharomyces cerevisiae), P53616 (protein) MGSSHHHHHHSSGLVPRGSHNGSIYGDLADFSGPYEKFEDGTIPCGQFPSGQGVIPISWLDEGGWSGVENTDTSTGGSCKEGSYCSYACQPGMSKTQWPSDQPSDGRSIGGLLCKDGYLYRSNTDTDYLCEWGVDAAYVVSELSNDVAICRTDYPGTENMVIPTYVQAGDSLPLTVVDQDTYYTWQGLKTSAQYYVNNAGISVEDACVWGSSSSGVGNWAPLNFGAGSSDGVAYLSLIPNPNNGNALNFNVKIVAADDSSTVNGECIYENGSFSGGSDGCTVSVTAGKAKFVLYN",glycan array binding signal (z-score),[1],1.86
same,glycan array binding signal (z-score),Gal3S(b1-4)Glc,-0.193
same,glycan array binding signal (z-score),Gal3S(b1-4)Glc6S,0.778
same,glycan array binding signal (z-score),Gal3S(b1-4)GlcNAc,-0.014
same,glycan array binding signal (z-score),[2],0.797
same,glycan array binding signal (z-score),[3],1.19
same,glycan array binding signal (z-score),[4],0.474
same,glycan array binding signal (z-score),Gal3S4S(b1-4)GlcNAc,-0.528
same,glycan array binding signal (z-score),Gal3S6S(b1-4)GlcNAc,2.2
same,glycan array binding signal (z-score),Gal3S6S(b1-4)GlcNAc6S,0.562
same,glycan array binding signal (z-score),Gal4S(b1-4)GlcNAc,-0.639
same,glycan array binding signal (z-score),Gal4S6S(b1-4)GlcNAc,1.6
same,glycan array binding signal (z-score),Gal6P(b1-4)GlcNAc,0.437
same,glycan array binding signal (z-score),Gal6S(b1-3)GlcNAc,-0.431
same,glycan array binding signal (z-score),Gal6S(b1-3)GlcNAc6S,-1.2
same,glycan array binding signal (z-score),Gal6S(b1-4)Glc,0.269
same,glycan array binding signal (z-score),Gal6S(b1-4)Glc6S,-0.905
same,glycan array binding signal (z-score),Gal6S(b1-4)GlcNAc,-0.415
same,glycan array binding signal (z-score),Gal6S(b1-4)GlcNAc6S,-0.761
same,glycan array binding signal (z-score),GalNAc(a1-3)Gal,-0.188
same,glycan array binding signal (z-score),GalNAc(a1-3)GalNAc,0.218
same,glycan array binding signal (z-score),[5],-0.199
same,glycan array binding signal (z-score),[6],-0.011
same,glycan array binding signal (z-score),GalNAc(b1-3)Gal,-0.713
same,glycan array binding signal (z-score),[7],0.13
same,glycan array binding signal (z-score),[8],-1.03
same,glycan array binding signal (z-score),[9],-0.338
same,glycan array binding signal (z-score),GalNAc(b1-3)GalNAc,-1.06
same,glycan array binding signal (z-score),GalNAc(b1-3)GlcNAc,-0.587
same,glycan array binding signal (z-score),GalNAc(b1-4)Gal(b1-4)Glc,-0.107
same,glycan array binding signal (z-score),GalNAc(b1-4)GlcNAc,-0.224
same,glycan array binding signal (z-score),[10],-0.109
same,glycan array binding signal (z-score),[11],4.51
same,glycan array binding signal (z-score),[12],-0.309
same,glycan array binding signal (z-score),GalNAc(b1-4)GlcNAc6S,0.149
same,glycan array binding signal (z-score),GalNAc(b1-6)GalNAc,-1.22
same,glycan array binding signal (z-score),GalNAc3S(b1-4)GlcNAc,1.87

# Part of the list above, bar-delimited:
binder | measurement | setting | value
SUN4 (Saccharomyces cerevisiae), P53616 (protein) MGSSHHHHHHSSGLVPRGSHNGSIYGDLADFSGPYEKFEDGTIPCGQFPSGQGVIPISWLDEGGWSGVENTDTSTGGSCKEGSYCSYACQPGMSKTQWPSDQPSDGRSIGGLLCKDGYLYRSNTDTDYLCEWGVDAAYVVSELSNDVAICRTDYPGTENMVIPTYVQAGDSLPLTVVDQDTYYTWQGLKTSAQYYVNNAGISVEDACVWGSSSSGVGNWAPLNFGAGSSDGVAYLSLIPNPNNGNALNFNVKIVAADDSSTVNGECIYENGSFSGGSDGCTVSVTAGKAKFVLYN | glycan array binding signal (z-score) | Gal6S(b1-4)GlcNAc6S | -0.761
same | glycan array binding signal (z-score) | GalNAc(a1-3)Gal | -0.188
